Publication PMC3171469, “Multiple ETS Family Proteins Regulate PF4 Gene Expression by Binding to the Same ETS Binding Site”
For at least one entry, the source does not settle the construct or the ends of the probe. For some of these results: At least one result comes from cells or an extract, where the contact may be indirect. For some of these results: Negatives hold for the conditions tested. For some of these results: Where a protein sequence is shown, tags need not be part of it. For some of these results: At least one verdict rests on a figure or table, not on a statement of the authors.

How the values were obtained:
[1] = molecular target: T1, ELF-1 (HEL nuclear extract) (UniProt P32519); test: competition with a labelled probe; conditions: band I not inhibited by mutant competitor; 2 mM HEPES-NaOH pH 7.9, 5 mM KCl, 2% glycerol, 0.01 mM EDTA, 0.25 mM DTT, 0.1 mg/ml BSA, 5 ng/ul poly dI-dC, 50 fmol probe, 40 min at 4 C; 4% native gel, 0.5x TBE; protein in an extract; label: 32P as probe, unlabelled as competitor
T1 sequence (looked up, limits assumed): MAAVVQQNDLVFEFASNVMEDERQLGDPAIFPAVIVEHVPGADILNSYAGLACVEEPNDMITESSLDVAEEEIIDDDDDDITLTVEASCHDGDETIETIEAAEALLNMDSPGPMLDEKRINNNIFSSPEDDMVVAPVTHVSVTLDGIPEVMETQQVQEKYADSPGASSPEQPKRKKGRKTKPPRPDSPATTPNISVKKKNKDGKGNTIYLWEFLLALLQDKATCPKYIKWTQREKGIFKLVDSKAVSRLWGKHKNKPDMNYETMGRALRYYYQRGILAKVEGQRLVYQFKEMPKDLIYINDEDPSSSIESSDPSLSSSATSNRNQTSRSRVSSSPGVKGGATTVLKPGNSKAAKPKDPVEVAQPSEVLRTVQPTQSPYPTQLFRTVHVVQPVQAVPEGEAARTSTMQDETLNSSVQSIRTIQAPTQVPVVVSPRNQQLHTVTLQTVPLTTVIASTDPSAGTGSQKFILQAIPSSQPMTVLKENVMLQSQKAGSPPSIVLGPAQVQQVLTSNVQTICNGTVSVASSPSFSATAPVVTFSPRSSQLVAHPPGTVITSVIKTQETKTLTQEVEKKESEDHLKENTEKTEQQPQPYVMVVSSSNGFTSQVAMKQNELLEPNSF

[2] = molecular target: T2, FLI-1 (HEL nuclear extract) (UniProt Q01543); test: competition with a labelled probe; conditions: band IIIa not inhibited by mutant competitor; 2 mM HEPES-NaOH pH 7.9, 5 mM KCl, 2% glycerol, 0.01 mM EDTA, 0.25 mM DTT, 0.1 mg/ml BSA, 5 ng/ul poly dI-dC, 50 fmol probe, 40 min at 4 C; 4% native gel, 0.5x TBE; protein in an extract; label: 32P as probe, unlabelled as competitor
T2 sequence (looked up, limits assumed): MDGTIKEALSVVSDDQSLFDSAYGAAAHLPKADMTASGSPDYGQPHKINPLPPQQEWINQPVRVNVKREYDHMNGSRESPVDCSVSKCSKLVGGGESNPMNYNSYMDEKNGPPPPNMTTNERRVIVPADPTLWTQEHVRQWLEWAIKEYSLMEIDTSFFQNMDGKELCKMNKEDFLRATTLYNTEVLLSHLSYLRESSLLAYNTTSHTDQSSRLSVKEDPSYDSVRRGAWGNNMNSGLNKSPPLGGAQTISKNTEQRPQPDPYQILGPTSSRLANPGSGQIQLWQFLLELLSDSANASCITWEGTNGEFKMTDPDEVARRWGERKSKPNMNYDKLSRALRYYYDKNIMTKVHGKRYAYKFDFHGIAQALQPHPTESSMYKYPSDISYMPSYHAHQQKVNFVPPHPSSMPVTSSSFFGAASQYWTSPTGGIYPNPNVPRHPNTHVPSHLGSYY

[3] = test system: GABP (HEL nuclear extract); test: competition with a labelled probe; conditions: band II not inhibited by mutant competitor; 2 mM HEPES-NaOH pH 7.9, 5 mM KCl, 2% glycerol, 0.01 mM EDTA, 0.25 mM DTT, 0.1 mg/ml BSA, 5 ng/ul poly dI-dC, 50 fmol probe, 40 min at 4 C; 4% native gel, 0.5x TBE; protein in an extract; label: 32P as probe, unlabelled as competitor
GABPalpha = molecular target: T3, GABPalpha (UniProt Q06546); test: EMSA; conditions: GABPalpha alone (band alpha); 2 mM HEPES-NaOH pH 7.9, 5 mM KCl, 2% glycerol, 0.01 mM EDTA, 0.25 mM DTT, 0.1 mg/ml BSA, 5 ng/ul poly dI-dC, 50 fmol probe, 40 min at 4 C; 4% native gel, 0.5x TBE; protein translated in vitro; label: 32P
T3 sequence (looked up, limits assumed): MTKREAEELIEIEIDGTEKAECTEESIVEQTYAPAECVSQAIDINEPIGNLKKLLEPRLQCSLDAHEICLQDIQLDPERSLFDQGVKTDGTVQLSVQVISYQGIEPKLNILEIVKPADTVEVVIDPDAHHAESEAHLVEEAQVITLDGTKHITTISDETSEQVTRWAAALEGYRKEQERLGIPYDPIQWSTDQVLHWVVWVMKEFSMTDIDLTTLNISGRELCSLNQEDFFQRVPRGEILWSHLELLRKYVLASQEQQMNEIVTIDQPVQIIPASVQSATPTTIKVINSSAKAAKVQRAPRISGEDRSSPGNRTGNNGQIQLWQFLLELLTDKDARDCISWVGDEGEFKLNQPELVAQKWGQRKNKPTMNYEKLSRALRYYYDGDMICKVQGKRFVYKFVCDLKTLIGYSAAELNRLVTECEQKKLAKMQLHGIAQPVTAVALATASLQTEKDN

[4] = molecular target: T1, ELF-1 (HEL nuclear extract); test: EMSA supershift; conditions: band I inhibited by antibody, cold wild type competes; 2 mM HEPES-NaOH pH 7.9, 5 mM KCl, 2% glycerol, 0.01 mM EDTA, 0.25 mM DTT, 0.1 mg/ml BSA, 5 ng/ul poly dI-dC, 50 fmol probe, 40 min at 4 C; 4% native gel, 0.5x TBE; protein in an extract; label: 32P
[5] = molecular target: T2, FLI-1 (HEL nuclear extract); test: EMSA supershift; conditions: band IIIa, cold wild type competes; 2 mM HEPES-NaOH pH 7.9, 5 mM KCl, 2% glycerol, 0.01 mM EDTA, 0.25 mM DTT, 0.1 mg/ml BSA, 5 ng/ul poly dI-dC, 50 fmol probe, 40 min at 4 C; 4% native gel, 0.5x TBE; protein in an extract; label: 32P
[6] = test system: GABP (HEL nuclear extract); test: EMSA supershift; conditions: band II inhibited by antibody, cold wild type competes; 2 mM HEPES-NaOH pH 7.9, 5 mM KCl, 2% glycerol, 0.01 mM EDTA, 0.25 mM DTT, 0.1 mg/ml BSA, 5 ng/ul poly dI-dC, 50 fmol probe, 40 min at 4 C; 4% native gel, 0.5x TBE; protein in an extract; label: 32P

Sequence	binding result [1]	binding result [2]	binding result [3]	binding result (GABPalpha)	binding result [4]	binding result [5]	binding result [6]
CCCGGGTCGGTGGACTGGGCTG (double strand) [-51 ETSmut]	no binding	no binding	no binding	–	–	–	–
CCCGGGTTTCCGGACTGGGCTG (double strand) [-51 ETS]	–	–	–	binds	binds	binds	binds
